Data taken from patent publication US20040067915A1, “Method to treat cardiofibrosis with a combination of an angiotensin II antagonist and spironolactone” (G.D. Searle & Co., priority 1995, published 2004).
At least one structure is not confirmed: it was looked up by name or label, or the drawing left a doubt.

Target: T1, angiotensin II receptor (rabbit aortic rings) (Oryctolagus cuniculus, UniProt P34976)
T1 construct: The thoracic aorta was removed, cleaned of adherent fat and connective tissue and then cut into 3-mm ring segments; from tissue; host or cells: rabbit thoracic aorta rings, endothelium removed
T1 sequence (P34976 1-359): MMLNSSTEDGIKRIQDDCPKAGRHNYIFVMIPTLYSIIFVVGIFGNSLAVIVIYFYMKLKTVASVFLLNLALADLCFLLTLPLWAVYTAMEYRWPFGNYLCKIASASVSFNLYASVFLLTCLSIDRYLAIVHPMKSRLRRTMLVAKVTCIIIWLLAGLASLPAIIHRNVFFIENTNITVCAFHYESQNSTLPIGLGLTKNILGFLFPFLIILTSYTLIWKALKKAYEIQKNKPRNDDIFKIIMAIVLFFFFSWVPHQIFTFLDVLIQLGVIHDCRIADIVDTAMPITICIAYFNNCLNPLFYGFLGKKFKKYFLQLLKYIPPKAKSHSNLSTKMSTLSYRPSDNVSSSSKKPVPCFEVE
Assay: Assay B: In vitro Vascular Smooth Muscle Response for AII (rabbit aortic rings, pA2)
Type: cell-based
Conditions: two determinations given as a/b
Experimental: Assay B: In vitro Vascular Smooth Muscle-response for AII
The compounds of the invention were tested for antagonist activity in rabbit aortic rings. Male New Zealand white rabbits (2-2.5 kg) were sacrificed using an overdose of pentobarbital and exsanguinated via the carotid arteries. The thoracic aorta was removed, cleaned of adherent fat and connective tissue and then cut into 3-mm ring segments. The endothelium was removed from the rings by gently sliding a rolled-up piece of filter paper into the vessel lumen. The rings were then mounted in a water-jacketed tissue bath, maintained at 37° C., between moveable and fixed ends of a stainless steel wire with the moveable end attached to an FT03 Grass transducer coupled to a Model 7D Grass Polygraph for recording isometric force responses. […] The preparations were equilibrated for one hour before approximately one gram of passive tension was placed on the rings. Angiotensin II concentration-response curves were then recorded (3×10^−10 to 1×10^−5 M). […] The effectiveness of the test compound was expressed in terms of pA2 values and were calculated according to H. O. Schild [Br. J. Pharmacol. Chemother., 2, 189-206 (1947)]. […] Each test antagonist was evaluated in aorta rings from two rabbits. […]

CCCCc1nc2c(OC(=O)Cc3ccccc3)nnc(O)c2n1Cc1ccc(-c2ccccc2-c2nnn[nH]2)cc1 [Compound 124]
Assay B pA2: 9.42/9.12
